From the supplement of paper PMC3353916 come the findings set out here.

The data scatter; read single values as rough.

The test system of this data set is Sindbis virus TE/5'2J-GFP. Briefly: percent infected (GFP+ in RFP+ ISG-expressing cells); higher = more infection (less antiviral activity). Conditions: experiment: primary screen (single well).

Substance “MVAHNQVAADNAVSTAAEPRRRPEPSSSSSSSPAAPARPRPCPAVPAPAPGDTHFRTFRSHADYRRITRASALLDACGFYWGPLSVHGAHERLRAEPVGTFLVRDSRQRNCFFALSVKMASGPTSIRVHFQAGRFHLDGSRESFDCLFELLEHYVAAPRRMLGAPLRQRRVRPLQELCRQRIVATVGRENLARIPLNPVLRDYLSSFPFQI [SOCS1]” showed a percent infected (BHK/HA-Zeo (control)) of 92.6% and a percent infected (BHK/NZAP-Zeo (ZAP)) of 91.9%.
Regarding “MALLDVCGAPRGQRPESALPVAGSGRRSDPGHYSFSMRSPELALPRGMQPTEFFQSLGGDGERNVQIEMAHGTTTLAFKFQHGVIAAVDSRASAGSYISALRVNKVIEINPYLLGTMSGCAADCQYWERLLAKECRLYYLRNGERISVSAASKLLSNMMCQYRGMGLSMGSMICGWDKKGPGLYYVDEHGTRLSGNMFSTGSGNTYAYGVMDSGYRPNLSPEEAYDLGRRAIAYATHRDSYSGGVVNMYHMKEDGWVKVESTDVSDLLHQYREANQ [PSMB8]”, the percent infected by setting is: (BHK/HA-Zeo (control)) 95.4%; (BHK/NZAP-Zeo (ZAP)) 84.8%.
For “MGRCCFYTAGTLSLLLLVTSVTLLVARVFQKAVDQSIEKKIVLRNGTEAFDSWEKPPLPVYTQFYFFNVTNPEEILRGETPRVEEVGPYTYRELRNKANIQFGDNGTTISAVSNKAYVFERDQSVGDPKIDLIRTLNIPVLTVIEWSQVHFLREIIEAMLKAYQQKLFVTHTVDELLWGYKDEILSLIHVFRPDISPYFGLFYEKNGTNDGDYVFLTGEDSYLNFTKIVEWNGKTSLDWWITDKCNMINGTDGDSFHPLITKDEVLYVFPSDFCRSVYITFSDYESVQGLPAFRYKVPAEILANTSDNAGFCIPEGNCLGSGVLNVSICKNGAPIIMSFPHFYQADERFVSAIEGMHPNQEDHETFVDINPLTGIILKAAKRFQINIYVKKLDDFVETGDIRTMVFPVMYLNESVHIDKETASRLKSMINTTLIITNIPYIIMALGVFFGLVFTWLACKGQGSMDEGTADERAPLIRT [SCARB2]” the same measures were 96.9% and 92%.
For “MGVNAVHWFRKGLRLHDNPALKECIQGADTIRCVYILDPWFAGSSNVGINRWRFLLQCLEDLDANLRKLNSRLFVIRGQPADVFPRLFKEWNITKLSIEYDSEPFGKERDAAIKKLATEAGVEVIVRISHTLYDLDKIIELNGGQPPLTYKRFQTLISKMEPLEIPVETITSEVIEKCTTPLSDDHDEKYGVPSLEELGFDTDGLSSAVWPGGETEALTRLERHLERKAWVANFERPRMNANSLLASPTGLSPYLRFGCLSCRLFYFKLTDLYKKVKKNSSPPLSLYGQLLWREFFYTAATNNPRFDKMEGNPICVQIPWDKNPEALAKWAEGRTGFPWIDAIMTQLRQEGWIHHLARHAVACFLTRGDLWISWEEGMKVFEELLLDADWSINAGSWMWLSCSSFFQQFFHCYCPVGFGRRTDPNGDYIRRYLPVLRGFPAKYIYDPWNAPEGIQKVAKCLIGVNYPKPMVNHAEASRLNIERMKQIYQQLSRYRGLGLLASVPSNPNGNGGFMGYSAENIPGCSSSGSCSQGSGILHYAHGDSQQTHLLKQGRSSMGTGLSGGKRPSQEEDTQSIGPKVQRQSTN [CRY1]” the same measures were 98.3% and 96.3%.
For “MDFKIEHTWDGFPVKHEPVFIRLNPGDRGVMMDISAPFFRDPPAPLGEPGKPFNELWDYEVVEAFFLNDITEQYLEVELCPHGQHLVLLLSGRRNVWKQELPLSFRMSRGETKWEGKAYLPWSYFPPNVTKFNSFAIHGSKDKRSYEALYPVPQHELQQGQKPDFHCLEYFKSFNFNTLLGEEWKQPESDLWLIEKCDI [C4orf33]” the same measures were 91.8% and 77.6%.
On to “MTSPHFSSYDEGPLDVSMAATNLENQLHSAQKNLLFLQREHASTLKGLHSEIRRLQQHCTDLTYELTVKSSEQTGDGTSKSSELKKRCEELEAQLKVKENENAELLKELEQKNAMITVLENTIKEREKKYLEELKAKSHKLTLLSSELEQRASTIAYLTSQLHAAKKKLMSSSGTSDASPSGSPVLASYKPAPPKDKLPETPRRRMKKSLSAPLHPEFEEVYRFGAESRKLLLREPVDAMPDPTPFLLARESAEVHLIKERPLVIPPIASDRSGEQHSPAREKPHKAHVGVAHRIHHATPPQAQPEVKTLAVDQVNGGKVVRKHSGTDRTV [CCDC92]”, for which the percent infected turned out to be 95.4% (BHK/HA-Zeo (control)) and 92.8% (BHK/NZAP-Zeo (ZAP)).
For “MDKQNSQMNASHPETNLPVGYPPQYPPTAFQGPPGYSGYPGPQVSYPPPPAGHSGPGPAGFPVPNQPVYNQPVYNQPVGAAGVPWMPAPQPPLNCPPGLEYLSQIDQILIHQQIELLEVLTGFETNNKYEIKNSFGQRVYFAAEDTDCCTRNCCGPSRPFTLRIIDNMGQEVITLERPLRCSSCCCPCCLQEIEIQAPPGVPIGYVIQTWHPCLPKFTIQNEKREDVLKISGPCVVCSCCGDVDFEIKSLDEQCVVGKISKHWTGILREAFTDADNFGIQFPLDLDVKMKAVMIGACFLIDFMFFESTGSQEQKSGVW [PLSCR1]”, the percent infected was determined as 98.5% (BHK/HA-Zeo (control)) and 96.2% (BHK/NZAP-Zeo (ZAP)).
For the substance “MELEGRGAGGVAGGPAAGPGRSPGESALLDGWLQRGVGRGAGGGEAGACRPPVRQDPDSGPDYEALPAGATVTTHMVAGAVAGILEHCVMYPIDCVKTRMQSLQPDPAARYRNVLEALWRIIRTEGLWRPMRGLNVTATGAGPAHALYFACYEKLKKTLSDVIHPGGNSHIANGAAGCVATLLHDAAMNPAEVVKQRMQMYNSPYHRVTDCVRAVWQNEGAGAFYRSYTTQLTMNVPFQAIHFMTYEFLQEHFNPQRRYNPSSHVLSGACAGAVAAAATTPLDVCKTLLNTQESLALNSHITGHITGMASAFRTVYQVGGVTAYFRGVQARVIYQIPSTAIAWSVYEFFKYLITKRQEEWRAGK [SLC25A28]”, the percent infected turned out to be 92.9% (BHK/HA-Zeo (control)) and 93.9% (BHK/NZAP-Zeo (ZAP)).
Take “MAPRSLLLLLSGALALTDTWAGSHSLRYFSTAVSRPGRGEPRYIAVEYVDDTQFLRFDSDAAIPRMEPREPWVEQEGPQYWEWTTGYAKANAQTDRVALRNLLRRYNQSEAGSHTLQGMNGCDMGPDGRLLRGYHQHAYDGKDYISLNEDLRSWTAADTVAQITQRFYEAEEYAEEFRTYLEGECLELLRRYLENGKETLQRADPPKAHVAHHPISDHEATLRCWALGFYPAEITLTWQRDGEEQTQDTELVETRPAGDGTFQKWAAVVVPPGEEQRYTCHVQHEGLPQPLILRWEQSPQPTIPIVGIVAGLVVLGAVVTGAVVAAVMWRKKSSDRNRGSYSQAAV [HLA-F]”: the percent infected is, setting by setting: (BHK/HA-Zeo (control)) 96.4%; (BHK/NZAP-Zeo (ZAP)) 92.9%.
For “MPVKGGTKCIKYLLFGFNFIFWLAGIAVLAIGLWLRFDSQTKSIFEQETNNNNSSFYTGVYILIGAGALMMLVGFLGCCGAVQESQCMLGLFFGFLLVIFAIEIAAAIWGYSHKDEVIKEVQEFYKDTYNKLKTKDEPQRETLKAIHYALNCCGLAGGVEQFISDICPKKDVLETFTVKSCPDAIKEVFDNKFHIIGAVGIGIAVVMIFGMIFSMILCCAIRRNREMV [CD9]” the same measures were 95.7% and 88%.
For “MAEFLDDQETRLCDNCKKEIPVFNFTIHEIHCQRNIGMCPTCKEPFPKSDMETHMAAEHCQVTCKCNKKLEKRLLKKHEETECPLRLAVCQHCDLELSILKLKEHEDYCGARTELCGNCGRNVLVKDLKTHPEVCGREGEEKRNEVAIPPNAYDESWGQDGIWIASQLLRQIEALDPPMRLPRRPLRAFESDVFHNRTTNQRNITAQVSIQNNLFEEQERQERNRGQQPPKEGGEESANLDFMLALSLQNEGQASSVAEQDFWRAVCEADQSHGGPRSLSDIKGAADEIMLPCEFCEELYPEELLIDHQTSCNPSRALPSLNTGSSSPRGVEEPDVIFQNFLQQAASNQLDSLMGLSNSHPVEESIIIPCEFCGVQLEEEVLFHHQDQCDQRPATATNHVTEGIPRLDSQPQETSPELPRRRVRHQGDLSSGYLDDTKQETANGPTSCLPPSRPINNMTATYNQLSRSTSGPRPGCQPSSPCVPKLSNSDSQDIQGRNRDSQNGAIAPGHVSVIRPPQNLYPENIVPSFSPGPSGRYGASGRSEGGRNSRVTPAAANYRSRTAKAKPSKQQGAGDAEEEEEE [TRAFD1]” the same measures were 98.9% and 97.5%.
The corresponding values for “MAFIAKSFYDLSAISLDGEKVDFNTFRGRAVLIENVASLUGTTTRDFTQLNELQCRFPRRLVVLGFPCNQFGHQENCQNEEILNSLKYVRPGGGYQPTFTLVQKCEVNGQNEHPVFAYLKDKLPYPYDDPFSLMTDPKLIIWSPVRRSDVAWNFEKFLIGPEGEPFRRYSRTFPTINIEPDIKRLLKVAI [GPX2]” are 96.7% and 94.5%.
On to “MAEGEGYFAMSEDELACSPYIPLGGDFGGGDFGGGDFGGGDFGGGGSFGGHCLDYCESPTAHCNVLNWEQVQRLDGILSETIPIHGRGNFPTLELQPSLIVKVVRRRLAEKRIGVRDVRLNGSAASHVLHQDSGLGYKDLDLIFCADLRGEGEFQTVKDVVLDCLLDFLPEGVNKEKITPLTLKEAYVQKMVKVCNDSDRWSLISLSNNSGKNVELKFVDSLRRQFEFSVDSFQIKLDSLLLFYECSENPMTETFHPTIIGESVYGDFQEAFDHLCNKIIATRNPEEIRGGGLLKYCNLLVRGFRPASDEIKTLQRYMCSRFFIDFSDIGEQQRKLESYLQNHFVGLEDRKYEYLMTLHGVVNESTVCLMGHERRQTLNLITMLAIRVLADQNVIPNVANVTCYYQPAPYVADANFSNYYIAQVQPVFTCQQQTYSTWLPCN [FAM46A]”, for which the percent infected (BHK/NZAP-Zeo (ZAP)) was found to be 98.9%.
For PDK1, the percent infected came out at 95.9% (BHK/HA-Zeo (control)) and 83.5% (BHK/NZAP-Zeo (ZAP)).
For “MAVTTRLTWLHEKILQNHFGGKRLSLLYKGSVHGFRNGVLLDRCCNQGPTLTVIYSEDHIIGAYAEESYQEGKYASIILFALQDTKISEWKLGLCTPETLFCCDVTKYNSPTNFQIDGRNRKVIMDLKTMENLGLAQNCTISIQDYEVFRCEDSLDERKIKGVIELRKSLLSALRTYEPYGSLVQQIRILLLGPIGAGKSSFFNSVRSVFQGHVTHQALVGTNTTGISEKYRTYSIRDGKDGKYLPFILCDSLGLSEKEGGLCRDDIFYILNGNIRDRYQFNPMESIKLNHHDYIDSPSLKDRIHCVAFVFDASSIQYFSSQMIVKIKRIRRELVNAGVVHVALLTHVDSMDLITKGDLIEIERCEPVRSKLEEVQRKLGFALSDISVVSNYSSEWELDPVKDVLILSALRRMLWAADDFLEDLPFEQIGNLREEIINCAQGKK [IFI44]” the same measures were 97.5% and 95.1%.
In the case of “MTVPVRGFSLLRGRLGRAPALGRSTAPSVRAPGEPGSAFRGFRSSGVRHEAIIISGTEMAKHIQKEIQRGVESWVSLGNRRPHLSIILVGDNPASHTYVRNKIRAASAVGICSELILKPKDVSQEELLDVTDQLNMDPRVSGILVQLPLPDHVDERTICNGIAPEKDVDGFHIINIGRLCLDQHSLIPATASAVWEIIKRTGIQTFGKNVVVAGRSKNVGMPIAMLLHTDGEHERPGGDATVTIAHRYTPKEQLKIHTQLADIIIVAAGIPKLITSDMVKEGAAVIDVGINYVHDPVTGKTKLVGDVDFEAVKKKAGFITPVPGGVGPMTVAMLLKNTLLAAKKIIY [MTHFD2L]”, the percent infected turned out to be 97.9% (BHK/HA-Zeo (control)) and 95.5% (BHK/NZAP-Zeo (ZAP)).
